Reference: PubChem BioAssay AID652272 (Drosophila RNAi Screening Center, 2013)
The deposit covers about 21,000 reagents; shown is an unselected part of those that have a named target and a result. Over the whole deposit, 503 (2.4%) got an active call. 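Raw plate light values, not normalised; calls rest on replicate z-scores that were not deposited; hits include reporter decreases as well as increases.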 The record does not give: the amount of reagent, the time to read-out.

Assay: 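Genome-wide knock-down search for components of Hedgehog signalling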 (primary screen)
Cells: Drosophila clone 8 (Cl8) cells
Knock-down reagent: long dsRNA against Drosophila genes
Detection: 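Plate reader light from a firefly reporter under a ptc promoter fragment that responds to Hedgehog, with Renilla light as transfection reference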
Scale: firefly Hh reporter signal: higher = more ptc reporter light; Renilla reference signal: higher = more Renilla control light
Hit rule: 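Hit when the z-score averaged over two replicates is under -2 or over +3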
Calls: active = hit: reporter lowered or raised; inactive = not a hit

Gene,DRSC id,"firefly Hh reporter signal, replicate 1","firefly Hh reporter signal, replicate 2","firefly Hh reporter signal, replicate 3","Renilla reference signal, replicate 1","Renilla reference signal, replicate 2",outcome
CG17097,DRSC02569,1.05e5,39064,,2913,3197,inactive
CG44433,DRSC06517,1.62e5,97089,,4738,7046,inactive
CG44433,DRSC06518,1.15e5,50325,,2952,3368,inactive
CG13912,DRSC08381,50421,49553,,1830,3651,inactive
CG9932,DRSC03275,85953,43194,,2555,4551,inactive
uzip,DRSC04722,84592,79536,,3656,3292,inactive
CG14229,DRSC19585,49521,1.65e5,,1082,6955,inactive
CG4080,DRSC10398,1.24e5,72945,,4848,2870,inactive
CG6415,DRSC02954,60920,55159,,3196,2058,inactive
Mul1,DRSC08174,82948,45376,,2613,3995,inactive
CG17803,DRSC15275,7.64e5,9.00e5,1.56e5,46571,5895,inactive
bonsai,DRSC04453,90020,75350,,1792,6049,inactive
CG17249,DRSC08517,1.19e5,72404,,4996,2964,inactive
CG17684,DRSC07724,1.46e5,3.23e5,,4032,12587,inactive
CG17684,DRSC21166,68151,2.29e5,,1568,9206,inactive
CG12883,DRSC14570,62041,95843,,1568,2393,inactive
sm,DRSC05795,1.54e5,2.74e5,,4321,11144,inactive
sm,DRSC07686,89245,47995,,4251,2380,inactive
Pp2B-14D,DRSC20270,1.46e5,71340,,9316,3408,active
Ance-5,DRSC04055,98306,79045,,3362,3034,inactive
Hmt4-20,DRSC18482,1.06e5,73428,,1964,1755,inactive
Ttc7,DRSC04836,1.81e5,70834,,6376,2772,inactive
ms(3)76Cc,DRSC11071,1.60e5,1.57e5,,5543,4576,inactive
Tfb4,DRSC00675,1.23e5,97852,,2501,1744,inactive
hiw,DRSC20338,1.31e5,72036,,9057,3161,active
hiw,DRSC20339,57163,1.30e5,,1426,6726,inactive
CG2104,DRSC12304,94704,1.56e5,,3895,4611,inactive
Pcyt1,DRSC08157,1.03e5,74704,,4618,4012,inactive
CG7044,DRSC16180,7.14e5,90451,,36629,2512,inactive
clumsy,DRSC03111,93452,81815,,2022,5665,inactive
Nepl11,DRSC12333,1.21e5,5.47e5,1.04e5,4892,30146,inactive
CG5112,DRSC15718,1.01e5,1.03e5,,1964,2896,inactive
CG14071,DRSC02374,99448,66925,,2664,5985,inactive
PTP-ER,DRSC04636,1.21e5,40672,,4289,1697,inactive
gt,DRSC18782,23348,1.14e5,,587,5432,inactive
Pbp45,DRSC16509,95448,1.16e5,,1145,3094,inactive
hig,DRSC07628,1.20e5,4.22e5,1.05e5,4859,26861,inactive
CG3511,DRSC04382,74384,57312,,4054,2917,inactive
CG16935,DRSC06638,1.05e5,58020,,2855,4459,inactive
CG14177 (retired record),DRSC10176,32187,95014,90097,8824,6615,inactive
Mst84Dd,DRSC12600,1.20e5,1.52e5,,5324,4608,inactive
CG31128,DRSC13675,51637,3.19e5,,14032,7621,inactive
CG30471,DRSC07096,89146,62523,,4260,2541,inactive
CG4733,DRSC15634,6.05e5,1.20e5,,30397,3072,inactive
Vha16-5,DRSC02986,1.34e5,55248,,3443,4707,inactive
Traf-like,DRSC19894,77860,80631,,1691,1243,inactive
CG42241 (retired record),DRSC04007,1.52e5,2.72e5,,3931,12004,inactive
Pax,DRSC01703,1.36e5,2.45e5,,4051,12274,inactive
Pax,DRSC02651,1.57e5,1.13e5,,5367,4358,inactive
Pax,DRSC02652,1.40e5,81141,,3820,8011,inactive
CR1075,DRSC12144,1.46e5,1.69e5,,5604,5304,inactive
CG2691,DRSC19866,80284,65850,,1626,1008,inactive
CG7083,DRSC11136,51511,58171,,6460,4482,inactive
emp,DRSC04019,1.19e5,1.96e5,,2841,8240,inactive
emp,DRSC04683,1.02e5,89654,,4396,3473,inactive
CG14292,DRSC14772,5.59e5,1.01e5,,24757,2860,inactive
CG3841,DRSC02730,1.28e5,56122,,3366,5319,inactive

Reagents above called active (2):
Gene,DRSC id,"firefly Hh reporter signal, replicate 1","firefly Hh reporter signal, replicate 2","firefly Hh reporter signal, replicate 3","Renilla reference signal, replicate 1","Renilla reference signal, replicate 2",outcome
Pp2B-14D,DRSC20270,1.46e5,71340,,9316,3408,active
hiw,DRSC20338,1.31e5,72036,,9057,3161,active
